The list shows a part of the results. Shown are side measurements of this screen, not its main read-out; they come without a call. Compounds called inactive in the main read-out are mostly missing here. Words in brackets tell the shape of the fitted curve; partial curves, single points and poor fits give uncertain potencies.
Test: qHTS Assay to Find Inhibitors of Chronic Active B-Cell Receptor Signaling
Conditions: ABC-DLBCL IkBa-CBG/CBR reporter, luminescence ratio (green luciferase fused to IkBa over red control in TMD8 lymphoma cells), 4 h
In short: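 Cell line TMD8 (human ABC DLBCL), stably expressing tet-inducible CBG68-IkBa fusion and CBR; IMDM/0.5% FBS; cpd up to 46 uM; dox induction, 4 h, 37C/5% CO2; dual luminescence; green/red ratio; MG132 control.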

[1] = measured here: IkBa-CBG green luminescence
[2] = measured here: CBR red luminescence, cell number

SMILES | AC50 [1] | AC50 [2]
COCCNC(=O)c1c(N)n(/N=C/c2cccs2)c2nc3ccccc3nc12 | 3.26 µM [rising, full curve, poor fit] | 
C=C(C)c1ccccc1 |  | 2.06 µM [rising, partial curve, poor fit]
CC(=O)Oc1c(C)cc(Cl)cc1C(=O)Nc1ccc([N+](=O)[O-])cc1Cl |  | 0.651 µM [falling, full curve]
COc1ccc(C(=O)C2CCCN(C(=O)c3ccc4cc[nH]c4c3)C2)c(C)c1 (stereo not given) |  | 17.8 µM [rising, partial curve, poor fit]
CC1CCc2sc(C(=O)NN)cc2C1 (stereo not given) | 20 µM [falling, partial curve, poor fit] | 8.91 µM [falling, partial curve, poor fit]
Cc1cnc(NC(=O)Cc2c[nH]c3ccccc23)s1 |  | 6.31 µM [falling, full curve, poor fit]
COc1cc(-c2ncc3ccccn23)cc(OC)c1OC |  | 0.82 µM [falling, full curve, poor fit]
CC1(C)Oc2ccc(C(=O)NC3CCCC3)cc2N(CC(=O)N2CCOCC2)C1=O |  | 35.5 µM [rising, single point]
CCc1ccc(OCCCC(=O)O)c(Br)c1 |  | 29.1 µM [rising, single point]
CCOC(=O)N1CCC(NC(=O)CN(C)S(=O)(=O)c2cc3c(cc2Cl)NC(=O)CO3)CC1 |  | 0.146 µM [falling, full curve, poor fit]
O=C(Nc1nc(-c2ccccc2)cs1)c1cccs1 |  | 11.2 µM [falling, partial curve, poor fit]
CCn1cc([N+](=O)[O-])c(C(=O)N2N=C(c3ccc4ccccc4c3)CC2c2ccccc2O)n1 (stereo not given) |  | 5.8 µM [falling, full curve, poor fit]
Cc1ccc2nc(Nc3nc(C)cc(-c4ccccc4)n3)[nH]c(=O)c2c1 |  | 35.5 µM [falling, partial curve, poor fit]
O=C(Nc1ccccn1)c1ccc(Cl)c(S(=O)(=O)N2CCCCCC2)c1 |  | 1.3 µM [falling, full curve, poor fit]
CC1CCN(CCNC(=O)C2CCCN(c3ncnc4c3nc3n4CCCCC3)C2)CC1 (stereo not given) |  | 2.82 µM [falling, partial curve, poor fit]
Nc1nccc(-c2ccc(-n3cnc4ccccc43)cc2)n1 |  | 17.8 µM [falling, partial curve]
c1ccc2c(Nc3nc(N4CCOCC4)c4ccccc4n3)cccc2c1 |  | 14.6 µM [falling, partial curve]
O=C(Nc1ccc(S(=O)(=O)Nc2nccs2)cc1)c1cnc(Cl)c(Cl)c1 |  | 35.5 µM [falling, single point]
Cc1cccc(CC(=O)N2CCN=C2SCc2ccc([N+](=O)[O-])cc2)c1 |  | 29.1 µM [falling, single point]
CC(C(=O)N(C)C)N(C#N)c1nc(N(C)C)nc(N(C)C)n1 (stereo not given) |  | 5.62 µM [rising, single point]
CN(C(=O)c1ccc(N2CCCCC2)c([N+](=O)[O-])c1)C1CCS(=O)(=O)C1 (stereo not given) |  | 2.06 µM [rising, partial curve, poor fit]

Grouped by structure, the entries above containing an NH in an aromatic ring.
SMILES | AC50 [1] | AC50 [2]
COc1ccc(C(=O)C2CCCN(C(=O)c3ccc4cc[nH]c4c3)C2)c(C)c1 (stereo not given) |  | 17.8 µM [rising, partial curve, poor fit]
Cc1cnc(NC(=O)Cc2c[nH]c3ccccc23)s1 |  | 6.31 µM [falling, full curve, poor fit]
Cc1ccc2nc(Nc3nc(C)cc(-c4ccccc4)n3)[nH]c(=O)c2c1 |  | 35.5 µM [falling, partial curve, poor fit]

More records:

SMILES | AC50 [1] | AC50 [2]
COc1ccccc1NC(=O)CN(c1ccc(C)cc1)S(=O)(=O)c1c(C)n[nH]c1C |  | 17.8 µM [falling, partial curve, poor fit]
Cc1oc2c(c1C(=O)NCCO)CCCC2 |  | 29.1 µM [falling, single point]
CC(C)Cc1ccc(C(C)C(=O)Nc2ccc(O)cc2)cc1 (stereo not given) |  | 2.82 µM [falling, partial curve, poor fit]
COC(=O)c1c(NC(=O)C2CCCO2)sc2c1CCC2 (stereo not given) |  | 23.1 µM [rising, single point]
CCc1ccc(C(=O)NNc2ccccc2F)cc1 |  | 35.5 µM [falling, partial curve, poor fit]
CC(=O)Nc1ccc(N2CCN(C(C)=O)CC2)cc1 |  | 3.55 µM [rising, full curve]
COc1ccc2c(c1)c(CC(=O)OCC(=O)O)c(C)n2C(=O)c1ccc(Cl)cc1 |  | 2 µM [falling, full curve]
CC(=O)Nc1ccc(NC(=O)c2nc(S(=O)(=O)Cc3ccccc3)ncc2Cl)cc1 |  | 3.16 µM [falling, full curve]
N=c1c(S(=O)(=O)c2ccc(Br)cc2)cc2c(=O)n3ccccc3nc2n1C1CCCCC1 |  | 7.94 µM [rising, partial curve, poor fit]
Cc1ccc(C(=O)N/C(=C\c2ccc(-c3cccc([N+](=O)[O-])c3)o2)C(=O)NCCCN2CCOCC2)cc1 |  | 12.6 µM [falling, partial curve, poor fit]
CCN(C(=O)c1nn(-c2ccc(OC)cc2)c(=O)c2c1c1ccccc1n2C)c1ccc(OC)cc1 |  | 0.562 µM [rising, full curve, poor fit]
O=c1c2c(-c3cccs3)csc2ncn1-c1ccc(Br)cc1 |  | 6.31 µM [rising, single point]
O=C(Nc1ccccc1)c1cccnc1N1CCOCC1 |  | 0.82 µM [rising, full curve, poor fit]
Cc1csc(NC(=S)NC(=O)c2ccccc2)n1 | 12.6 µM [falling, partial curve] | 12.6 µM [falling, partial curve]
COCCCn1c(=S)[nH]c2ccc(N3CCOCC3)cc2c1=O |  | 2.06 µM [falling, partial curve, poor fit]
CCC(C)Nc1nc(N)c([N+](=O)[O-])c(NCCO)n1 (stereo not given) |  | 22.4 µM [rising, single point]
CCN(CC(=O)NC1CCCC1)S(=O)(=O)c1ccc(F)cc1 |  | 0.112 µM [rising, full curve, poor fit]
O=C1CSC(c2cccc([N+](=O)[O-])c2)N1c1ccccc1 (stereo not given) |  | 0.112 µM [falling, full curve, poor fit]
CCCCn1c(N)c(N(CC(C)C)C(=O)c2cc3c(s2)CCCCC3)c(=O)[nH]c1=O |  | 6.51 µM [rising, single point]
COc1cccc(-c2nc(-c3ccccc3)c(-c3ccccc3)[nH]2)c1OCC(=O)O |  | 17.8 µM [falling, partial curve, poor fit]
Cc1ccc(Nc2c([N+](=O)[O-])c(=O)n(C)c3ccccc23)cc1C |  | 9.2 µM [falling, partial curve]

Laid out differently: results already given.
O=C(Nc1ccccn1)c1ccc(Cl)c(S(=O)(=O)N2CCCCCC2)c1
  AC50 [2]: 1.3 µM [falling, full curve, poor fit]
CC1CCN(CCNC(=O)C2CCCN(c3ncnc4c3nc3n4CCCCC3)C2)CC1 (stereo not given)
  AC50 [2]: 2.82 µM [falling, partial curve, poor fit]

Following part:

SMILES | AC50 [1] | AC50 [2]
O=C(CCc1nnc(CCCCc2ccccc2)o1)NCCN1CCOC1=O |  | 5.01 µM [rising, partial curve, poor fit]
CC(C)C(=O)Nc1cccc(NC(=S)NC(=O)c2cccs2)c1 |  | 1.58 µM [falling, partial curve, poor fit]
COCCCN(C(=O)Nc1cccc(Cl)c1)C(C)c1ccccn1 (stereo not given) |  | 14.6 µM [rising, partial curve]
O=C(NC1CCN(C(=O)Nc2cccc(Cl)c2)CC1)c1ccccc1 |  | 3.55 µM [rising, single point]
O=C1CC(Nc2ccc(N3CCOCC3)cc2)C(=O)N1c1ccccc1F (stereo not given) |  | 23.1 µM [falling, single point]
COc1ccc(Cl)cc1NC(=S)NCc1ccc(S(N)(=O)=O)cc1 |  | 20.6 µM [falling, partial curve, poor fit]
CCC(=O)c1cc(F)ccc1OCC(=O)Nc1ccc2c(c1)OCCO2 |  | 29.1 µM [rising, single point]
Cn1c(=O)n(C)c2cc(N3CCCCC3)c(NC(=O)c3cccc(Cl)c3)cc21 |  | 20 µM [rising, partial curve, poor fit]
Cc1ccc(C2=NN(C(=O)c3ccco3)C(O)(C(F)(F)F)C2)cc1 (stereo not given) |  | 0.112 µM [rising, full curve, poor fit]
CNc1nc(NN)nc(Nc2ccccc2)n1 |  | 15.8 µM [falling, single point]
COC(=O)[C@@H]1CC[C@H](C)[C@@H](c2ccc(C)cc2)N1C(=O)c1ccc(/C=N/O[C@@H](C)c2cn([C@H](CO)Cc3ccccc3)nn2)cc1 |  | 13 µM [falling, partial curve]
COc1nn(-c2ccccc2)c(=O)c(Cl)c1Cl |  | 22.4 µM [falling, single point]
C=CCc1ccc(OCC(O)CN2CCN(Cc3ccc(Cl)cc3)CC2)c(OC)c1 (stereo not given) |  | 32.6 µM [falling, single point]
O=C(CN1C(=O)S/C(=C\c2ccccc2)C1=O)NC1CCS(=O)(=O)C1 (stereo not given) |  | 10 µM [falling, single point]
Cc1ccc(-c2onc3ccc(Cl)cc23)cc1 |  | 23.1 µM [rising, single point]
O=C(O)CCc1nc(-c2ccc(Cl)cc2)no1 |  | 7.08 µM [falling, full curve, poor fit]
O=C(CSc1nccn1Cc1ccccc1)NCc1ccccc1 |  | 10.3 µM [rising, partial curve, poor fit]
CCOC(=O)C1CCN(C(=O)C2(NC(=O)Nc3ccc(F)cc3F)CCCCC2)CC1 |  | 3.55 µM [rising, single point]
Cc1ccc(Cn2ccc(=O)c(OCc3c(Cl)cccc3Cl)c2C)cc1 |  | 20.6 µM [falling, single point]
N#Cc1ccc(N2Cc3ccccc3/C2=N/C(=O)Nc2ccc(Cl)cc2)cc1 |  | 5.17 µM [rising, partial curve, poor fit]
Cc1cccc(C(=O)Nc2nnc(COc3ccccc3)s2)c1 |  | 22.4 µM [falling, partial curve, poor fit]
